The source of these data is the supplement of paper PMC7666118.

Protein sequences, listed by entry. Tags and fused reporters are not part of them. Lines headed by an entry give the natural chain unless they say otherwise; changes in a name come on top.
UniProt Q9Y2H1: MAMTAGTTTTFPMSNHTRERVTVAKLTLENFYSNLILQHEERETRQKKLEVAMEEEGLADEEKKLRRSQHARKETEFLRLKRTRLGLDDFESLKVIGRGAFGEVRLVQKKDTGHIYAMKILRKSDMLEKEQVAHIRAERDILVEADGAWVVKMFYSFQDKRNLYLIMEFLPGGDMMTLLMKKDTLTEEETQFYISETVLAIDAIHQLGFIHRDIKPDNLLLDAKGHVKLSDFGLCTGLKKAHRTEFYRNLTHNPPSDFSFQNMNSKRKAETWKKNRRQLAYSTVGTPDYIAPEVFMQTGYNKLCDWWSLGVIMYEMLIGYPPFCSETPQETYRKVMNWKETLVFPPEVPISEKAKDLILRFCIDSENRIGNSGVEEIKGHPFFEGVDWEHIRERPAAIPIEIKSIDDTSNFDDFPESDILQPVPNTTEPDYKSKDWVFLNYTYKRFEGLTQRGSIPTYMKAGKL
UniProt Q12800: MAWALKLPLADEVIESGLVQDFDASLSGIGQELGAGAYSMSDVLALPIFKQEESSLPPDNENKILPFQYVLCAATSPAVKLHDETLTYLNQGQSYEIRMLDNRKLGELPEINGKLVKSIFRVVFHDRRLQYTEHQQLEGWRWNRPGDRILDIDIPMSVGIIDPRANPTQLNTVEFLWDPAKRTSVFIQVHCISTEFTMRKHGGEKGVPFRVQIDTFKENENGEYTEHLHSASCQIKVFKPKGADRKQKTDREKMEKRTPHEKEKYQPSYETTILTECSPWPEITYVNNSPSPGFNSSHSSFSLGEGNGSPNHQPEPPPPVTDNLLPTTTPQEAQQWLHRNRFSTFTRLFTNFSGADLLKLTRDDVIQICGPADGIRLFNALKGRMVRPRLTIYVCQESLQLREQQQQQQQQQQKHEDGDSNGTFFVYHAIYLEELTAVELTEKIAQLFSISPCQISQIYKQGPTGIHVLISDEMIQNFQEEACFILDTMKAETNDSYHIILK
UniProt Q96R06: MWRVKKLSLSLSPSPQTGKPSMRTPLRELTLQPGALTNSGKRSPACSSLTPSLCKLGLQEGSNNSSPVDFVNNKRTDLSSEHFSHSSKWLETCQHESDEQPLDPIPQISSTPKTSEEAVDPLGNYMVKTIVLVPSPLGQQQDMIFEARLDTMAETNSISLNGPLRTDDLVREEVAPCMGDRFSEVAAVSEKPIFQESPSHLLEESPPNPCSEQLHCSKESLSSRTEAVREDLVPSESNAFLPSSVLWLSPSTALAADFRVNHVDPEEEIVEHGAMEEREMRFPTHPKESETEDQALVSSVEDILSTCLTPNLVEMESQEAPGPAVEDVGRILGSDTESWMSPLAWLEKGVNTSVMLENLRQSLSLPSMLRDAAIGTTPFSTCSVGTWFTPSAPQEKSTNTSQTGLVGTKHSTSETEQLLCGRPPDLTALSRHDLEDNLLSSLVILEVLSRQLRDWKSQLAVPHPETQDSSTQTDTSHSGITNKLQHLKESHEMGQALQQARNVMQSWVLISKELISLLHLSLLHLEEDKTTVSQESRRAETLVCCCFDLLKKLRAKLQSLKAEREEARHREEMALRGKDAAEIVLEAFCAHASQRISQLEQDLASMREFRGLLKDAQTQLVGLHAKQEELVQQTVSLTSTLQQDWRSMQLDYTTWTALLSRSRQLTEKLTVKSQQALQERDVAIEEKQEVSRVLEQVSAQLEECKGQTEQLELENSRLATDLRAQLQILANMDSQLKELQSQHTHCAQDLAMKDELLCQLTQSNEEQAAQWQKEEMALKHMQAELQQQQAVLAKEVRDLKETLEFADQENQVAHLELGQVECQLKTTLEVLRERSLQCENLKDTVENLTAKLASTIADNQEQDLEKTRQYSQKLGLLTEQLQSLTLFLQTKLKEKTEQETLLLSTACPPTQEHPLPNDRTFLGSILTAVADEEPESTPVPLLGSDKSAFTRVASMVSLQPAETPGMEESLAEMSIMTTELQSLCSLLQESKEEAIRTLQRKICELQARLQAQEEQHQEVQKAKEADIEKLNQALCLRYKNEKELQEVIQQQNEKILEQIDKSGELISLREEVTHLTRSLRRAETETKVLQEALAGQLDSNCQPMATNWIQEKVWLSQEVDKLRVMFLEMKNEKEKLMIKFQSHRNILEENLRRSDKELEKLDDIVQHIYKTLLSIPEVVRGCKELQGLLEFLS
UniProt Q9BTW9: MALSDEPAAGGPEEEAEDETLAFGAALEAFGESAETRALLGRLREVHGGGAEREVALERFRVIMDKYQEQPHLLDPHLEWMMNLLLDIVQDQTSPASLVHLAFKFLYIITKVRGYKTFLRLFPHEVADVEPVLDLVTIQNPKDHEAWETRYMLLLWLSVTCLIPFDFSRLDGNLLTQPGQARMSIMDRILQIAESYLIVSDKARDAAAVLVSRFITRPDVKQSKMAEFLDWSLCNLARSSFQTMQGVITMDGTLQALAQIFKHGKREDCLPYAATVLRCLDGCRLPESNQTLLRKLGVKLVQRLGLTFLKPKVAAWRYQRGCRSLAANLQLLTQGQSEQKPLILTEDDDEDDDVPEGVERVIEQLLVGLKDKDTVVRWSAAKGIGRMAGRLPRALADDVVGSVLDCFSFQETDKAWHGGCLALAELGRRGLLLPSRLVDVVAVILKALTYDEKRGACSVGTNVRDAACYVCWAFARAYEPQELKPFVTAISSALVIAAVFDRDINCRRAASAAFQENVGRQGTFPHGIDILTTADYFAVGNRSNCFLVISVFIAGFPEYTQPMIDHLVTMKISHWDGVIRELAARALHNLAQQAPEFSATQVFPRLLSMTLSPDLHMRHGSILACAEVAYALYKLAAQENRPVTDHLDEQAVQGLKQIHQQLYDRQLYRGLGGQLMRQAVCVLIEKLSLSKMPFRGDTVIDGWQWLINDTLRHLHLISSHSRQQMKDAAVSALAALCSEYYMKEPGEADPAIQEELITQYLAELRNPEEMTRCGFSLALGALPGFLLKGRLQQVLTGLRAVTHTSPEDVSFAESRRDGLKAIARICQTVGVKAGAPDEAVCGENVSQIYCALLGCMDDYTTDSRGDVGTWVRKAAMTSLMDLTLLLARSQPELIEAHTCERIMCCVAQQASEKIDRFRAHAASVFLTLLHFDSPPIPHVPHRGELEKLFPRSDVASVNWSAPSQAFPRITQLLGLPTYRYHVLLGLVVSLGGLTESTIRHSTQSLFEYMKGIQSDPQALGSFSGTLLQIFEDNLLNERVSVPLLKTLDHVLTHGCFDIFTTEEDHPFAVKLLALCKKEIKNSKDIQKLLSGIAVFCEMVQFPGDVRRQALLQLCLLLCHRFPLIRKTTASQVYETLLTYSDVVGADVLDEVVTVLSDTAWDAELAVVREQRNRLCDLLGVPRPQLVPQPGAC
UniProt O15533, whole entry: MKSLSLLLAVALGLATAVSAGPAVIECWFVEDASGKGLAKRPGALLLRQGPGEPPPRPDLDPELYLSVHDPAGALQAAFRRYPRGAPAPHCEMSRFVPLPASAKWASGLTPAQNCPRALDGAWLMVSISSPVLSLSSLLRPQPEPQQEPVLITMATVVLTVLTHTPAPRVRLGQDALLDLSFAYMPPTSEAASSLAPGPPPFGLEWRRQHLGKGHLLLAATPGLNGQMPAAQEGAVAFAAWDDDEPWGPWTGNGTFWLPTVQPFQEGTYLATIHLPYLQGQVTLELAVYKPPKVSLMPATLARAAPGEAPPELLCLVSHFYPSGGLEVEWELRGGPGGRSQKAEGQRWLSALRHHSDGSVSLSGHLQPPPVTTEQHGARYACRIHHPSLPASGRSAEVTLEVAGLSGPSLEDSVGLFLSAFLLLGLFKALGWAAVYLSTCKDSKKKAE
UniProt P49842: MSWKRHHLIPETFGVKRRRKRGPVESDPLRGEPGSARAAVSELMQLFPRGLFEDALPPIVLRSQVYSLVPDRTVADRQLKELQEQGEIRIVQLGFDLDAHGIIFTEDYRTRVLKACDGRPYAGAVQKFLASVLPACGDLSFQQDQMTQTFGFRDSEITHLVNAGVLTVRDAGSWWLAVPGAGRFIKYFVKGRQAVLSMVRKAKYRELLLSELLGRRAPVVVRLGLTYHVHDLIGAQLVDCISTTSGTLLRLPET
UniProt Q9BXI6: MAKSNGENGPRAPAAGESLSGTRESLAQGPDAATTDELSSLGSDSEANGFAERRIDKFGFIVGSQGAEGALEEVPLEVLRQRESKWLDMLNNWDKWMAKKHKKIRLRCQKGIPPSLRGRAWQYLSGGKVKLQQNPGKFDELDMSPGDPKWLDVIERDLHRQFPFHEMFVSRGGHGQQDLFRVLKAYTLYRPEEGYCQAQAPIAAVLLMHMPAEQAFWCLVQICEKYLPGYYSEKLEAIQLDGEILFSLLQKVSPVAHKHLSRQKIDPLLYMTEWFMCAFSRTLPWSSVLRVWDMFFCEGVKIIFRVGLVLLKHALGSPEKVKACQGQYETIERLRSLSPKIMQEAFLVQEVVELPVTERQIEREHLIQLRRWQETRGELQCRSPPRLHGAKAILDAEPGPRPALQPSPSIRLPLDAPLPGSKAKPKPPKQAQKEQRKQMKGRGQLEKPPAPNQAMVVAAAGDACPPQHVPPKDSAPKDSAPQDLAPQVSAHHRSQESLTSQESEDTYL
UniProt Q9HBM1: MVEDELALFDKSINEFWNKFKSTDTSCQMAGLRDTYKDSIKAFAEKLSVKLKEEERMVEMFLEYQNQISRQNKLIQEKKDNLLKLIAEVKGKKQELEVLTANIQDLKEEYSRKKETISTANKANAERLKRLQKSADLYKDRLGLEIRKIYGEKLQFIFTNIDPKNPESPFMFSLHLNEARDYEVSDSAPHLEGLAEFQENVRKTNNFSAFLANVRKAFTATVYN
UniProt Q8WVM7: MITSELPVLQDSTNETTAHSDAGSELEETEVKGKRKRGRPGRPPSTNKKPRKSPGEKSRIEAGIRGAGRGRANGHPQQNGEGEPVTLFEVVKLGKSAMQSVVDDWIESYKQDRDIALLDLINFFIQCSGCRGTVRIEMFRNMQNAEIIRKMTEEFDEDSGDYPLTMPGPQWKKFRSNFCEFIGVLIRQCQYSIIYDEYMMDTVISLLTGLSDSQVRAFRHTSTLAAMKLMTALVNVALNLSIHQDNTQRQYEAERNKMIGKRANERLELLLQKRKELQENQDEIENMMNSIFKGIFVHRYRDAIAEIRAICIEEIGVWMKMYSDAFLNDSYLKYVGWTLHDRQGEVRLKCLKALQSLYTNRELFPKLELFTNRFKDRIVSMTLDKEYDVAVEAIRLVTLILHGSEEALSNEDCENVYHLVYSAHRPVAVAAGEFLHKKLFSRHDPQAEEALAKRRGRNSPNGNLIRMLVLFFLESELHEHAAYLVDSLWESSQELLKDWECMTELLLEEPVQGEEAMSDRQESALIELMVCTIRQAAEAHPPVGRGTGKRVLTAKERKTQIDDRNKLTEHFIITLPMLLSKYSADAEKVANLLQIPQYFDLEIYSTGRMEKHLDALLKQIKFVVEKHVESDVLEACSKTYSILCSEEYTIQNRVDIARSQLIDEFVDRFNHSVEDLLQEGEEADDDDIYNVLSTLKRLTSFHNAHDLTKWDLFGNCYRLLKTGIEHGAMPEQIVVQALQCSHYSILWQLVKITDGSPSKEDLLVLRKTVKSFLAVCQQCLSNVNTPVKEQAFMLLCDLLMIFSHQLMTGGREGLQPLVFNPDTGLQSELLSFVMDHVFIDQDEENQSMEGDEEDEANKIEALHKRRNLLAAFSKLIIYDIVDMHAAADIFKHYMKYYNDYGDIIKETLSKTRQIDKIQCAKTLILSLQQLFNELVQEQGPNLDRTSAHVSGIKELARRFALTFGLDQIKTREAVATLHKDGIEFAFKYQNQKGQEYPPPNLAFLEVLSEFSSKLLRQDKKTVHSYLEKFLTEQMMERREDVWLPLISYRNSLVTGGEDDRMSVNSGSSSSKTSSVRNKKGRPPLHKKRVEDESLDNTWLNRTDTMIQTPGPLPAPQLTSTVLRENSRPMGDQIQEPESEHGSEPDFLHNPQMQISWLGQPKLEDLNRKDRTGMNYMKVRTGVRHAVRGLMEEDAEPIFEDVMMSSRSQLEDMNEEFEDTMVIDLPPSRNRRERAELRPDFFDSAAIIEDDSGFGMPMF
UniProt Q13148, whole entry: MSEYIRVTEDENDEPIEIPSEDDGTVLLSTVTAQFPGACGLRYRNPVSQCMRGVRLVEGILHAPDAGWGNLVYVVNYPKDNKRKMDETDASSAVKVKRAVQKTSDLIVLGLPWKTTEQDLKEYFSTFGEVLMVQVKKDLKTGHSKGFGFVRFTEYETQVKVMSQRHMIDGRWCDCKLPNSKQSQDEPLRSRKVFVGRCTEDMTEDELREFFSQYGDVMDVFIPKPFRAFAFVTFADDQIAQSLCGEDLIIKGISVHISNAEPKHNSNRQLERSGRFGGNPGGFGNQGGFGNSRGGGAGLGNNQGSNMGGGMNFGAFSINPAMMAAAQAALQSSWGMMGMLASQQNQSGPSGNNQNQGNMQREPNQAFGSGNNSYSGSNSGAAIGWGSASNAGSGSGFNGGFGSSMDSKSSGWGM

Some of the results follow.

Compound in this experiment: COc1ccc(Cn2ccc3cc(C)c(C(=O)NO)cc32)cc1
Description: dose-dependent thermal stabilisation call (2D-TPP, DLPTP, 10% FDR) (binary (1 = stabilised)); higher = stabilised by the compound. The settings on record: system: HL-60 intact cells; concentration range 0.04-10 µM. On the procedure: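 2D thermal proteome profiling in intact HL-60 cells treated with BRD-3811 (0, 0.04, 0.29, 2, 10 uM) for 90 min at 37 C, then heated 3 min at one of 12 temperatures (42-63.9 C). Soluble protein was quantified by TMT10 MS. The value is the DLPTP call of the paper: dose-dependent thermal stabilisation over all temperatures at 10% FDR (F-test of a dose-response against a flat model); one experiment, one call per tested protein.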
On to TEX264 (UniProt Q9Y6I9), for which the “dose-dependent thermal stabilisation call” value was inactive: 0.
The same measure for STK38L (UniProt Q9Y2H1): inactive: 0; for STAM (UniProt Q92783): inactive: 0; for SYTL1 (UniProt Q8IYJ3): inactive: 0.
The same measure for SRP54 (UniProt P61011): inactive: 0; for TFCP2 (UniProt Q12800): inactive: 0.
As for TCEB2 (UniProt Q15370), the figure is inactive: 0; as for SUPT6H (UniProt Q7KZ85), inactive: 0.
As to SPAG5 (UniProt Q96R06), the “dose-dependent thermal stabilisation call” value was inactive: 0.
As for SSB (UniProt P05455), the figure is inactive: 0.
As for TGFB1 (UniProt P01137), the figure is inactive: 0; as for SSU72 (UniProt Q9NP77), inactive: 0.
As for TBC1D4 (UniProt O60343), the “dose-dependent thermal stabilisation call” value was inactive: 0.
Turning to SOS1 (UniProt Q07889), the “dose-dependent thermal stabilisation call” value was inactive: 0.
Take STARD7 (UniProt Q9NQZ5): the “dose-dependent thermal stabilisation call” value was inactive: 0.
As for SYPL1 (UniProt Q16563), the figure is inactive: 0; as for SRRD (UniProt Q9UH36), inactive: 0; as for TBCD (UniProt Q9BTW9), inactive: 0.
In the case of SRCAP (UniProt Q6ZRS2), the “dose-dependent thermal stabilisation call” value is inactive: 0.
On to TAPBP (UniProt O15533), for which the “dose-dependent thermal stabilisation call” value was inactive: 0.
In the case of TAF2 (UniProt Q6P1X5), the “dose-dependent thermal stabilisation call” value is inactive: 0.
With TBC1D2B (UniProt Q9UPU7), the “dose-dependent thermal stabilisation call” value was inactive: 0.
For the target TBC1D10C (UniProt Q8IV04), the “dose-dependent thermal stabilisation call” value was inactive: 0.
As to TGOLN2 (UniProt O43493), the “dose-dependent thermal stabilisation call” value is inactive: 0.
As for SRPK1 (UniProt Q96SB4), the figure is inactive: 0; as for STK19 (UniProt P49842), inactive: 0.
Regarding STX5 (UniProt Q13190), the “dose-dependent thermal stabilisation call” value was inactive: 0.
In the case of TBC1D10A (UniProt Q9BXI6), the “dose-dependent thermal stabilisation call” value was inactive: 0.
Take STX18 (UniProt Q9P2W9): the “dose-dependent thermal stabilisation call” value was inactive: 0.
As for STK11 (UniProt Q15831), the figure is inactive: 0; as for SR140 (UniProt O15042), inactive: 0.
As for SYNE1 (UniProt Q8NF91), the figure is inactive: 0; as for SPC25 (UniProt Q9HBM1), inactive: 0; as for STAG1 (UniProt Q8WVM7), inactive: 0.
The same measure for SRD5A3 (UniProt Q9H8P0): inactive: 0; for TFAP4 (UniProt Q01664): inactive: 0.
As for TARDBP (UniProt Q13148), the “dose-dependent thermal stabilisation call” value is inactive: 0.
Consider SRM (UniProt P19623), for which the “dose-dependent thermal stabilisation call” value was inactive: 0.
With SP2 (UniProt Q02086), the “dose-dependent thermal stabilisation call” value is inactive: 0.
The same measure for STK39 (UniProt Q9UEW8): inactive: 0.
